Results as given in US10001485B2, “Methods for sensitizing a quiescent cancer stem cell to a BCR-ABL inhibitor” (The Regents of the University of California, priority 2011, dated 2018).
At least one compound was matched to its structure with a doubt left.

Tested on: BCR-ABL
Test: CRKL phosphorylation in FACS-sorted marrow CD34+CD38+lin− cells after in vivo treatment
Set-up: species or system RAG2−/−γc−/− mice
Conditions: marrow CD34+CD38+lin− cells following treatment; data not shown

`Cc1nc(Nc2ncc(C(=O)Nc3c(C)cccc3Cl)s2)cc(N2CCN(CCO)CC2)n1` [Dasatinib, dasatinib] was tested. Which “CRKL phosphorylation, a direct measure of BCR-ABL activity” value did it give?
Its value is “significant reduction”.
